PubChem BioAssay AID1224830, NIAID | 2016
Here is one part, drawn at random, of about 18,000 reagents. About 2,900 of all reagents (16%) were called active. 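Calls are made per well; low scores hint the gene aids the LPS response, high scores that it dampens it.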 Unmarked entries are inactive. Repeated entries: four replicate wells of each siRNA pool.

- Assay: 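Genes whose knock-down alters the TNF-alpha reporter response to LPS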 (primary screen)
- Cell system: human THP-1 monocytic leukaemia cells, TNF dual-luciferase reporter clone, PMA-differentiated to macrophage-like cells
- Reagents: siRNA pool against human genes, 50 nM
- Timing: LPS for 4 h, given about 3 days after siRNA transfection
- Challenge: bacterial LPS (TLR4 ligand), 10 ng/ml
- Measured: 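TNF firefly reporter luminescence divided by renilla, normalised to the plate median, then turned into a robust z-score for each replicate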
- Direction: TNF reporter robust z-score: higher = stronger TNF reporter response to LPS
- Call rule: 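Each well counts as active if its z-score is over 2.8 or under -1.5; controls are left without a call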

Against BLOC1S5 the deposit lists TNF reporter robust z-score -0.72.
BLOC1S5 gave TNF reporter robust z-score 0.01.
BLOC1S5 gave TNF reporter robust z-score 0.
Against BLOC1S5, the entry reads TNF reporter robust z-score 0.32.
With knock-down of N4BP3, the screen gave TNF reporter robust z-score 0.01.
After knock-down of N4BP3, the record shows TNF reporter robust z-score -0.75.
N4BP3 showed TNF reporter robust z-score -1.51 (active).
N4BP3 showed TNF reporter robust z-score -0.99.
After knock-down of CDK7, the record shows TNF reporter robust z-score -0.03.
With knock-down of CDK7, the record shows TNF reporter robust z-score 1.04.
Silencing of CDK7 gave: TNF reporter robust z-score 0.92.
After knock-down of CDK7 the results were TNF reporter robust z-score 0.76.
SMPD2 scored TNF reporter robust z-score -1.24.
With knock-down of SMPD2, the screen gave TNF reporter robust z-score -1.51 (active).
SMPD2 showed TNF reporter robust z-score -1.68 (active).
With knock-down of SMPD2, the screen gave TNF reporter robust z-score -1.27.
For CDH22, the values are TNF reporter robust z-score -0.28.
For CDH22, the values are TNF reporter robust z-score 0.69.
CDH22 scored TNF reporter robust z-score -0.01.
Depletion of CDH22 gave: TNF reporter robust z-score 0.44.

Entries listed so far whose target name begins with C or c:
CDK7 | TNF reporter robust z-score = -0.03
CDK7 | TNF reporter robust z-score = 1.04
CDK7 | TNF reporter robust z-score = 0.92
CDK7 | TNF reporter robust z-score = 0.76
CDH22 | TNF reporter robust z-score = -0.28
CDH22 | TNF reporter robust z-score = 0.69
CDH22 | TNF reporter robust z-score = -0.01
CDH22 | TNF reporter robust z-score = 0.44

More records follow.
CPM scored TNF reporter robust z-score -1.08.
After knock-down of CPM the results were TNF reporter robust z-score -0.81.
Against CPM, the values are TNF reporter robust z-score 0.7.
Against CPM, the entry reads TNF reporter robust z-score 0.96.
Knock-down of FUBP1 resulted in: TNF reporter robust z-score 2.47.
Against FUBP1, the entry reads TNF reporter robust z-score 1.55.
For FUBP1, the values are TNF reporter robust z-score 0.62.
Silencing of FUBP1 resulted in: TNF reporter robust z-score 0.95.
After knock-down of CTSE, the screen gave TNF reporter robust z-score 2.43.
Depletion of CTSE came out at: TNF reporter robust z-score 3.86 (active).
CTSE gave TNF reporter robust z-score -0.29.
With knock-down of CTSE the results were TNF reporter robust z-score 2.71.
After knock-down of SNX15, the record shows TNF reporter robust z-score -0.12.
Against SNX15, the values are TNF reporter robust z-score 0.62.
SNX15 gave TNF reporter robust z-score 1.06.
Against SNX15 the deposit lists TNF reporter robust z-score 2.1.
After knock-down of KCNC3 the results were TNF reporter robust z-score -0.07.
KCNC3 gave TNF reporter robust z-score 2.27.
Knock-down of KCNC3 resulted in: TNF reporter robust z-score 0.03.
With knock-down of KCNC3 the results were TNF reporter robust z-score 0.74.
RPS6KA5 scored TNF reporter robust z-score 2.07.
With knock-down of RPS6KA5, the screen gave TNF reporter robust z-score 0.34.
Silencing of RPS6KA5 resulted in: TNF reporter robust z-score 1.21.
RPS6KA5 gave TNF reporter robust z-score 1.04.
After knock-down of SPECC1 the results were TNF reporter robust z-score -0.66.
With knock-down of SPECC1, the record shows TNF reporter robust z-score -0.92.
With knock-down of SPECC1, the screen gave TNF reporter robust z-score 0.16.
For SPECC1, the entry reads TNF reporter robust z-score -0.41.
